Data taken from ChEMBL document CHEMBL3988442, “University of Dundee, Small-Polar-MMV Screening Library” (2021).

Sequences of proteins named here, by UniProt entry; tags and fusion partners are left off.
UniProt P9WPC5, whole entry: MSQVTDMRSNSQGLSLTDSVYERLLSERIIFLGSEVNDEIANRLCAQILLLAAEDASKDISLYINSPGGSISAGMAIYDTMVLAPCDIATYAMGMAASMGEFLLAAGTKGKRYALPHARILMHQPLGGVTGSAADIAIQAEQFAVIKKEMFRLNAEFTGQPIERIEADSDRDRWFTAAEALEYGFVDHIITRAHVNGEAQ
UniProt P9WPC3, whole entry partner: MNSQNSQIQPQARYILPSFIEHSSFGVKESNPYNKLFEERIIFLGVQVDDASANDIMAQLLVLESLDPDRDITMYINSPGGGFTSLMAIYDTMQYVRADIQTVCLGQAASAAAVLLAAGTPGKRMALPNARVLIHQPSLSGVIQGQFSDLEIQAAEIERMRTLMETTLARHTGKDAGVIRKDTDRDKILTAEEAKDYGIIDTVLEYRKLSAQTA

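ClpP1P2, Mycobacterium tuberculosis (UniProt P9WPC5 and UniProt P9WPC3). Protease assay of ClpP1P2, read by the AMC dye that it sets free. Tested at 50 µM. Higher reads as stronger inhibition, judged from the few compounds that gave an IC50. Most other retested compounds had strongly negative values. Of about 69,000 compounds tested this way, about 10 (0.015%) reached 50% or more in at least one test.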

Results are given as percent effect.
How 0% and 100% were set is not recorded. Most values in the screen are low, and negative values occur.
This is an unselected part of the compounds tested.

For CC(C)c1nnc2n1CCN(C(=O)c1ccc3c(c1)COC3)C2 the result was 3.616%.
For COc1ncccc1C(=O)Nc1ccccc1-c1ccc(=O)n(C)n1 the result was -9.206%.
For O[C@@H]1CN(c2nc3ccccc3o2)CC[C@H]1c1ccc2c(c1)OCO2 the result was 10.56%.
For Cc1nc(CCN)cc(N(C)Cc2nc3ccc(F)cc3[nH]2)n1 the result was -6.658%.
For CC1CN(C(=O)CCc2cc(Br)cs2)CCO1 (stereo not shown) the result was -1.364%.
For Cc1nc(S(=O)(=O)N2CCSC3(CCCCC3)C2)cn1C the result was -6.774%.
For CC(=O)N1CCOC(CCc2cc(-c3c(C)noc3C)ncn2)C1 (stereo not shown) the result was -15.64%.
For c1ccc(O[C@@H]2CC[C@H]3[C@H]2OCCN3CC2CCOCC2)nc1 the result was 1.837%.
For Cc1ccc(CN2CC[C@H](c3nnc(COc4ccc(F)cc4)o3)C2)o1 the result was 4.146%.
For CCCN1CC[C@@H]2[C@@H](CO[C@H]2CNC(=O)c2nccn2C)C1 the result was -6.979%.
For Cn1cc(CN(Cc2cccc(-n3cccn3)c2)C2CC2)cn1 the result was 8.008%.
For CC(CNS(=O)(=O)c1cccc(Cl)c1)N1CCN(C)CC1 (stereo not shown) the result was -8.387%.
For Cc1cc(C(=O)N2C[C@@H]3COC[C@]3(c3nnc(C(C)C)o3)C2)on1 the result was -7.027%.
For NC(=O)CN1CCN(CC2CC2)c2ccccc21 the result was -1.269%.
For CC(=O)N1CC[C@@H]2CN(Cc3ccncc3)S(=O)(=O)[C@@H]2CC1 the result was 6.649%.
For CCCn1nnnc1COC(=O)C1COc2ccccc2O1 (stereo not shown) the result was -9.64%.
For COCCNC(=O)c1cc(-n2cccc2)ccc1Cl the result was -22.14%.
For CO[C@@H]1CCC[C@@H](N(C)C(=O)c2cn3cc(C)ccc3n2)[C@H]1O the result was 5.229%.
For Cc1cnn(CC2CCCCN2Cc2nnc(C3CC3)n2C)c1 (stereo not shown) the result was 4.794%.
For CN(Cc1noc2c1CCCC2)C(=O)CN1C(=O)COc2ccccc21 the result was -1.219%.
For CCOC1(C)C(=O)c2ccccc2N1Nc1ccccc1C(=O)CC (stereo not shown) the result was -10.98%.
For N#Cc1cnc(NCc2ccc(C(=O)NC3CC3)cc2)c(Cl)c1 the result was -4.319%.
For COc1ccc(OCc2sc(C3(O)CCCNCC3)nc2C)cc1 (stereo not shown) the result was -3.934%.
For CN(Cc1ccsc1)C(=O)c1ccc2c(c1)NC(=O)CO2 the result was -37.92%.
For CC(Cc1ccc(Cl)cc1)NC(=O)Nc1cnn(CC(N)=O)c1 (stereo not shown) the result was 5.78%.
For CN1CCOC(CNCC(=O)NCCc2ccc3c(c2)OCCO3)C1 (stereo not shown) the result was 16.55%.
For CCN1C(=O)C[C@@H]2[C@@H]1CCN2S(=O)(=O)c1cccc(C)c1 the result was -6.002%.
For OCCN1CCN(Cc2coc(-c3cccc(F)c3)n2)CC1 the result was 15.87%.
For CC(NC(=O)NCCc1ccc(Cl)s1)c1ccccn1 (stereo not shown) the result was -36.71%.
For CCC1CCCCN1C(=O)c1ccc2[nH]nnc2c1 (stereo not shown) the result was 3.239%.
For Cc1ccc(CN2C[C@@H](N(C)C)[C@H]3OCCC[C@H]32)o1 the result was -3.668%.
For CN(Cc1ccsc1)C(=O)c1cccc(F)c1 the result was 4.998%.
For NCC1CN(C(=O)Cn2ncc(N3CCCCC3)cc2=O)CCO1 (stereo not shown) the result was -9.205%.
For C1CCCN(CC2CCCN(Cc3noc(C4CC4)n3)C2)CC1 (stereo not shown) the result was -26.76%.
For Cc1nc(CN2CCc3nc(N4CCCC4)nc(NC(C)C)c3C2)cs1 the result was -21.97%.
For Oc1cc(CCC2CCCCN2)cc(-c2cccnc2)c1 (stereo not shown) the result was 0.1454%.
For CC(C)c1ncc2c(n1)CN(Cc1cccc(OCC(N)=O)c1)CC2 the result was 0.8311%.
For CCCN1Cc2cc(Br)ccc2OCC1=O the result was 0.1502%.
For NC(=O)C1CCN(Cc2cc3c(cc2Br)OCCO3)C1 (stereo not shown) the result was -7.933%.
For CN1CCN(c2cc(CNCc3cccc4c3OCO4)ccn2)CC1 the result was -4.583%.
For Cc1cccc(C(=O)NC(C)CN2CCCC2=O)n1 (stereo not shown) the result was -25.65%.
For c1cnc2[nH]nc(C3CCN(Cc4ccsc4)CC3)c2c1 the result was 2.462%.
For C[C@@H]1CN(C(=O)c2cnc(C3CC3)nc2)CC[C@@]1(O)C1CCOCC1 the result was -10.93%.
For CCC(Nc1cccc(OC)c1)C(=O)N(CCO)Cc1nccs1 (stereo not shown) the result was -1.745%.
For O=C(c1cncnc1)N1Cc2ccccc2OC2(CCOCC2)C1 the result was -3.465%.
For Cc1ccc(S(=O)(=O)Nc2ccc(-n3nnn(C)c3=O)cc2)cc1 the result was -10.62%.
For O=S1(=O)CCC(n2cc(CNc3ccccc3Br)cn2)C1 (stereo not shown) the result was -0.7278%.

The first 4 entries again:

For CC(C)c1nnc2n1CCN(C(=O)c1ccc3c(c1)COC3)C2 the result was 3.616%.
For COc1ncccc1C(=O)Nc1ccccc1-c1ccc(=O)n(C)n1 the result was -9.206%.
For O[C@@H]1CN(c2nc3ccccc3o2)CC[C@H]1c1ccc2c(c1)OCO2 the result was 10.56%.
For Cc1nc(CCN)cc(N(C)Cc2nc3ccc(F)cc3[nH]2)n1 the result was -6.658%.